Values from PubChem BioAssay AID1259254 (NCATS, 2017)
Aim: 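Gene knock-downs that lead to re-replication, shown by excess G2 DNA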 (primary screen). Cells: human HCT116 colorectal cancer cells. Reagent: single siRNA against human genes. Duration: 3 days. Detection: 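Imaged Hoechst DNA stain sorts each cell into a cycle phase by DNA amount; per plate, G2 fraction set to 0% for non-targeting and 100% for GMNN siRNA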. Scale: G2 robust z-score: higher = more G2 cells, more excess DNA replication. Hit rule: 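Active siRNAs have a G2 robust z of 5 or more median absolute deviations over the median, which in these data means about 38% or higher of GMNN control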.
This is one part, drawn at random, of about 59,000 reagents tested. About 1,550 of them (2.6%) count as active. 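G2 share is only a proxy for re-replication; each gene was hit by three separate siRNAs, and active genes were retested.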 The numbers tell different reagents against one gene apart. Further read-outs or replicates are left out here. No sequences are given here. Not stated in the record: the amount of reagent.

With knock-down of TNNI3 (GeneID 7137) #1, the record shows G2 robust z-score -1; inactive. TNNI3 (GeneID 7137) #2 gave G2 robust z-score 7.21; active. TNNI3 (GeneID 7137) #3 scored G2 robust z-score -0.506; inactive. Knock-down of AARSD1 (GeneID 80755) #1 resulted in: G2 robust z-score 2.33; inactive. With knock-down of AARSD1 (GeneID 80755) #2 the results were G2 robust z-score -0.748; inactive. Against AARSD1 (GeneID 80755) #3, the values are G2 robust z-score -0.00881; inactive.

Silencing of PUS1 (GeneID 80324) #1 came out at: G2 robust z-score 0.765; inactive. With knock-down of PUS1 (GeneID 80324) #2 the results were G2 robust z-score 1.58; inactive. After knock-down of PUS1 (GeneID 80324) #3 the results were G2 robust z-score 0.662; inactive. For B4GAT1 (GeneID 11041) #1, the entry reads G2 robust z-score -1.17; inactive. With knock-down of B4GAT1 (GeneID 11041) #2 the results were G2 robust z-score 6.83; active. B4GAT1 (GeneID 11041) #3 scored G2 robust z-score -0.463; inactive.

After knock-down of ZNF575 (GeneID 284346) #1 the results were G2 robust z-score 1.09; inactive. With knock-down of ZNF575 (GeneID 284346) #2 the results were G2 robust z-score 1.8; inactive. Silencing of ZNF575 (GeneID 284346) #3 resulted in: G2 robust z-score -0.0416; inactive. GARIN1B (GeneID 84691) #1 scored G2 robust z-score -0.411; inactive. Silencing of GARIN1B (GeneID 84691) #2 resulted in: G2 robust z-score -1.11; inactive. Silencing of GARIN1B (GeneID 84691) #3 came out at: G2 robust z-score -0.675; inactive.

Depletion of NBPF11 (GeneID 200030) #1 came out at: G2 robust z-score -0.807; inactive. With knock-down of NBPF11 (GeneID 200030) #2, the record shows G2 robust z-score -0.586; inactive. Against NBPF11 (GeneID 200030) #3, the entry reads G2 robust z-score -0.105; inactive. With knock-down of SMURF2 (GeneID 64750) #1, the screen gave G2 robust z-score 2.97; inactive. SMURF2 (GeneID 64750) #2 scored G2 robust z-score -0.627; inactive. With knock-down of SMURF2 (GeneID 64750) #3 the results were G2 robust z-score 3.75; inactive.

Reagents listed so far with an active call (2):
TNNI3 (GeneID 7137) #2: G2 robust z-score = 7.21; outcome = active
B4GAT1 (GeneID 11041) #2: G2 robust z-score = 6.83; outcome = active
